Data from US20080014143A1 (SANFORD BURNHAM MEDICAL RESEARCH INSTITUTE, published 2008).
These are yes or no findings as the source states them, for the method shown. In cells and extracts the contact can be indirect. Here binding means that the protein was enriched with, or labelled near, the bait; the list need not be complete.

The chains behind the UniProt entries cited, without tags or fusion partners. Residues count along the entry.
UniProt Q07021, residues 74-282: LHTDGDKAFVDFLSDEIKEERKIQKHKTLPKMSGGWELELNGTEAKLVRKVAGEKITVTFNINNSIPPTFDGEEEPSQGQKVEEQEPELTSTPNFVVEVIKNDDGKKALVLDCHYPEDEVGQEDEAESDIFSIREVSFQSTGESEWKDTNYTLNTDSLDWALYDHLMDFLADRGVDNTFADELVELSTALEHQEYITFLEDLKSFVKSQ

Target: endogenous gC1qR/p32 of tumor cells and tissues (extracts of MDA-MB-435 cells, BT549 cells, MDA-MB-435 tumor xenografts; blots and sections) (human) (UniProt Q07021)
Assay: pull-down with biotinylated peptide from MDA-MB-435 cell and xenograft extracts; silver stain, mass spectrometry, immunoblot

CGNKRTRGC (biotinylated (site not told); described as a cyclic nonapeptide) [biotinylated LyP-1 peptide (…)]
binding: binds
